{"source": "paper PMC7427514", "about": "(Chem, 2020)", "tested_on": "3DIV hippocampal mouse neurons", "assay": "Ca2+ influx assay upon GABA application in immature", "assay_type": "cell-based", "conditions": "10 and 100 μM", "data": [{"compound": "NS(=O)(=O)c1cc(C(=O)O)c(NCc2ccco2)cc1Cl", "note": "[furosemide]", "values": [{"measurement": "level of alleged NKCC1 inhibition in the Ca2+ influx assay compared with the Cl− influx assay", "value": "higher potency than in the Cl^− influx assay"}]}]}
